# Measured values taken from PMC4230746.
# The chains behind the UniProt entries cited, without tags or fusion partners.
# UniProt Q92355: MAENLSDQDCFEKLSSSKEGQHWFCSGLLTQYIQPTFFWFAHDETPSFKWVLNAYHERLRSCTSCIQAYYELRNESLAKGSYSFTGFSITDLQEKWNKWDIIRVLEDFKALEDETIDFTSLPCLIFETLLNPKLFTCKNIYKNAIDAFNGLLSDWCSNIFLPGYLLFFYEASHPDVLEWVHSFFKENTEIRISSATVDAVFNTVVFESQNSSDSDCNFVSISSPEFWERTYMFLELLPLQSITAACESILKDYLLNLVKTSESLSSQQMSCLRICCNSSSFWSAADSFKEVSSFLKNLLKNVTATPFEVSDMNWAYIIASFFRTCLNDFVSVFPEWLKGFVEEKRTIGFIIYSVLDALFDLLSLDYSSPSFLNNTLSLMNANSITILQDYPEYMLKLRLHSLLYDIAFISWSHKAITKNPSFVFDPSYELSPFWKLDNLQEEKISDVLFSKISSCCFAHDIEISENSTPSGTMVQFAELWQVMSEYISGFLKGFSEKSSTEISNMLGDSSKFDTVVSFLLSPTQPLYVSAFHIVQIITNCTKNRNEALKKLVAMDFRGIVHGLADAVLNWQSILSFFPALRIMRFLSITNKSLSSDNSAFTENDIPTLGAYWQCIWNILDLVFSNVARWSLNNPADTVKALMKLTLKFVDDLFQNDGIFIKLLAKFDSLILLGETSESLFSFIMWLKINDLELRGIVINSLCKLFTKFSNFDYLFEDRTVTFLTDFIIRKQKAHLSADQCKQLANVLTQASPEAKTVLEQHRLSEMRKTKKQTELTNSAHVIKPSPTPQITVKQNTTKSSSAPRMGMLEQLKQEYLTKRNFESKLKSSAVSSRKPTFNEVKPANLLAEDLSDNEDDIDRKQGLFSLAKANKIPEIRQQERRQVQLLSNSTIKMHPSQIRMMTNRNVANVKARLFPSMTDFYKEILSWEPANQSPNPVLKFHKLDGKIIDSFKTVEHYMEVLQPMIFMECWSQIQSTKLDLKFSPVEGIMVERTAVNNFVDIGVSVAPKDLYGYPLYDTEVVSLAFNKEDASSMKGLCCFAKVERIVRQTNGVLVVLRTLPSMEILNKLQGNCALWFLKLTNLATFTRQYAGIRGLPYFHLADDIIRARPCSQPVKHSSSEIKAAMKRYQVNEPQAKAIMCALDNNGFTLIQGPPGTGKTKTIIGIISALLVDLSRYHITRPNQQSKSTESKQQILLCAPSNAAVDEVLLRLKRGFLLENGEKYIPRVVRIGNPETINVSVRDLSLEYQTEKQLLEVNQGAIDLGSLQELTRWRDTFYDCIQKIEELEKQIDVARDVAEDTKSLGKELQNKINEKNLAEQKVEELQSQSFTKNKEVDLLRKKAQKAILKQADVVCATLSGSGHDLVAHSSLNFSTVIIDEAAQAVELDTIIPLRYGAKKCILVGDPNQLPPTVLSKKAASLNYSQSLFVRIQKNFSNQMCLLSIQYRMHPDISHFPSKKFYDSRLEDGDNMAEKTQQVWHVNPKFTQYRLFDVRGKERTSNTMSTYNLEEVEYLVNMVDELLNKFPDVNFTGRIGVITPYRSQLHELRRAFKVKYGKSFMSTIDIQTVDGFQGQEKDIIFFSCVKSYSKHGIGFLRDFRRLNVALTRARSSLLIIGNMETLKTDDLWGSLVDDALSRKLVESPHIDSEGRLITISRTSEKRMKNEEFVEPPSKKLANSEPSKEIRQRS
# These are yes or no findings as the source states them, for the method shown. In cells and extracts the contact can be indirect. Some binding calls cover weakened binding; strength is not graded here. Sequences can lack the tags named with a protein.
# B1: Myc-tagged Rpc25 (protein, UniProt O94285 1-203)
# chain: MFLLSRFSDIISIHPSNFWKPTKEALAEEIHKKYANKVIQNIGLAICVYDFLKIGEGIIKYGDGSSYMNVVFRLIIFRPFRGEVMLGKIKSCSEEGIRVTISFFDDIFIPKDMLFDPCVFRPDERAWVWKIEGEDGSEGTELYFDIDEEIRFQIESEDFVDISPKRNKNATAITGTEALESVSPYTLIASCSRDGLGIPAWWK
# B2: myc-tagged TFIIIC component Sfc6 (protein, UniProt O60174 1-582)
# chain: MGPKSKEYENPSSYKNDEDNDDDGDFVLENVMSEEDIEIETPSRNRKRVSTTRRTPSKPIRSQPLTPSSSKGAGNEPKSQNSSTTRGSAKKQSSKGLEEKLINSYGTHVESLNKGRRLIEIWKYYETAPGQSSFEGQTSSDSKLQTLLNLDGQQLLSYSENPFYLFEVKNLSISFHFESPQQVEPCQPVNPFKENPQKSGFVVNTGIPLSSVSWLPTNKETQFLAVGGMLKFSETTESVFMRTSGRNQIQLWKLENKTNFKSEFILYHDWGSVLQLEWCPTISVEDSILGFLAVVCSDGKLRVLRVPRSPVKFHVFVEQADFTFGFNDSLISCCTWVSPEHGDIHQILVGCSNGYLALWDILSSQECPLFYIPYHDSYIHNVVQCLDDFPWLFLTTAFDCYTRIFDIRDPIIDNRPLSHKRDICYTITWNNMLQSIISCSESQSVVIESLRGTSTQLLDERNGSIISLSNSKFHPFVACAASDGIVTIVNPFRLLGFSHKQKANVHRIFQLEYSEKQDSYRMLDGFRPRLPKAKKLDMYIYPWQIQVNKVEWNGNKGYAGWLASGMACGILRVEDLSAVERR
# Target: Flag-tagged Sen1 (fission yeast (Schizosaccharomyces pombe)) (UniProt Q92355)
# Assay: co-IP; Flag IP of Flag-tagged Sen1 from whole cell extracts of fission yeast strains; western blot of WCE and immuno-precipitated material
row,binding,Binder
1,binds,B1
2,no binding,B2
